Some of the results follow.
Assays:
Test in all cases: log2 fold change, soluble protein after heating vs DMSO (PISA); higher = thermal stabilisation; K562 cells, 10 uM, 30 min; active = over 0.2 and 3.5 SD of the protein, either way, in both replicates (recomputed)
[1] = compound: Cc1ccc(NC(=O)c2ccc(CN3CC[C@H](N(C)C)C3)c(C(F)(F)F)c2)cc1Nc1nccc(-c2cncnc2)n1 [bafetinib]
Summary of the method: (§1)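 K562 cells at 2×10^6 cells/mL were exposed to 10 μM compound for 30 min, then aliquots were heated for 3 min across 48°C-58°C, pooled, and extracted in PBS containing 0.5% NP-40 at 4°C. The supernatant after 21,000xg for 90 min was taken as soluble protein and measured by TMTpro 16plex LC-MS/MS with channel sums equalised. Thermal stability is reported relative to control samples, with values from duplicates. Fold changes are given on a log2 scale.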

Chains of the proteins cited; added tags and fusions are not shown. Lines headed by an entry give the natural chain unless they say otherwise; changes in a name come on top.
UniProt Q9H019: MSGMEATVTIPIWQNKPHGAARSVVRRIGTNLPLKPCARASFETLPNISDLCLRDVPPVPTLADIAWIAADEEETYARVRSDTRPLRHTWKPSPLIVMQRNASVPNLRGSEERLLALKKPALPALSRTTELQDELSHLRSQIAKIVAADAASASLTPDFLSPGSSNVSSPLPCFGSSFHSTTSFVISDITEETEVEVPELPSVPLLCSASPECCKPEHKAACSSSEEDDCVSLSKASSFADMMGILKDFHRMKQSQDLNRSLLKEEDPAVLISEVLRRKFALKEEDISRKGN
UniProt Q2M296: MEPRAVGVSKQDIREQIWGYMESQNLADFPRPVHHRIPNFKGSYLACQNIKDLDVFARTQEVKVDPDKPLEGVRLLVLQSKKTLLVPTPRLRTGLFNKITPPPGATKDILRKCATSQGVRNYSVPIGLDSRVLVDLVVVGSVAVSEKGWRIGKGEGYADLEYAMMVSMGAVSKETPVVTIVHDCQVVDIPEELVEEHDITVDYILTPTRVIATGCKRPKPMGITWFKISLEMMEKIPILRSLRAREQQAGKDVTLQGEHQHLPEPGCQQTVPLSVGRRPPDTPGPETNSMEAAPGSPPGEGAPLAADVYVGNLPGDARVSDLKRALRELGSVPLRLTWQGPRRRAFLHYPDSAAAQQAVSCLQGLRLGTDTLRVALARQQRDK
UniProt P03928: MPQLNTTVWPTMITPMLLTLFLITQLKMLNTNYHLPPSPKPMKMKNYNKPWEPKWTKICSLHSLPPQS
UniProt P00403, whole entry, looked up: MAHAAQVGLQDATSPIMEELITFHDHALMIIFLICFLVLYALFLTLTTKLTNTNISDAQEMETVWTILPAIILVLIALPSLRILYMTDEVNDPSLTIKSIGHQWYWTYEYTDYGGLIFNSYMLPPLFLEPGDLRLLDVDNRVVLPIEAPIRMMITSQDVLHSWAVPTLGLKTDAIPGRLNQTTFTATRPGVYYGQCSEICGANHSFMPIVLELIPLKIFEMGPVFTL
UniProt Q9Y6C9: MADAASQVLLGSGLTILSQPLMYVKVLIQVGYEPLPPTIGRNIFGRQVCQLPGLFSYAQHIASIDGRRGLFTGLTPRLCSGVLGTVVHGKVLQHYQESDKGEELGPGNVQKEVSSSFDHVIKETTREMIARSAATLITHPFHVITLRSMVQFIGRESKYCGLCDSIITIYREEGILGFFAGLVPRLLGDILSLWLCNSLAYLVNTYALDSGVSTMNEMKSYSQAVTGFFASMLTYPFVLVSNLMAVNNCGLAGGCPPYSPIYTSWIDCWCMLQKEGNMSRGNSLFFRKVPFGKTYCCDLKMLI
UniProt P03891, whole entry, looked up: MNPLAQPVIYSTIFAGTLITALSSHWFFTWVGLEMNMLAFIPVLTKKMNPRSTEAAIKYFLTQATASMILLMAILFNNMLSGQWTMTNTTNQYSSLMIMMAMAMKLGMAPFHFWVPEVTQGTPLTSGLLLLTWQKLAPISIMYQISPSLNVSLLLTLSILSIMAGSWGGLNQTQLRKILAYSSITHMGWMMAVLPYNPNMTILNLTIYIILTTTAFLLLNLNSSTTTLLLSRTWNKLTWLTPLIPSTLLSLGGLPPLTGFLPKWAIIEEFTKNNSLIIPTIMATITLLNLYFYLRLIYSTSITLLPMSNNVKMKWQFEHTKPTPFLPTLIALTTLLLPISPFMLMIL
UniProt Q99836, whole entry, looked up: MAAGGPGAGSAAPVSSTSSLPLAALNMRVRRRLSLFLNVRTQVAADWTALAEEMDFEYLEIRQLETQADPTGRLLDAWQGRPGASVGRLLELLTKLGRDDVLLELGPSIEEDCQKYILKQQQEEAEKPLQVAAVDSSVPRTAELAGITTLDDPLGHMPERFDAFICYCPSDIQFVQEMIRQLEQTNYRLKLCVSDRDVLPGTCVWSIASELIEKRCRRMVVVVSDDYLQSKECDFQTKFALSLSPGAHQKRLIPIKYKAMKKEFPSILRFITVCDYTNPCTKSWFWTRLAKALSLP
UniProt Q9H2K0, whole entry, looked up: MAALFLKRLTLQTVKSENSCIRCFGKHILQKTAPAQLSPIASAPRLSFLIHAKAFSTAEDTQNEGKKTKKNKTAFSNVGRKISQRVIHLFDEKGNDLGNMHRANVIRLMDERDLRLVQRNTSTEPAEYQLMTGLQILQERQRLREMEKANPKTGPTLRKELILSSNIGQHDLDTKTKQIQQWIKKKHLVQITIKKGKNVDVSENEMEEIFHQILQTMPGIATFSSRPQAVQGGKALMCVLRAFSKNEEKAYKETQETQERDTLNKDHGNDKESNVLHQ
UniProt Q86UE4: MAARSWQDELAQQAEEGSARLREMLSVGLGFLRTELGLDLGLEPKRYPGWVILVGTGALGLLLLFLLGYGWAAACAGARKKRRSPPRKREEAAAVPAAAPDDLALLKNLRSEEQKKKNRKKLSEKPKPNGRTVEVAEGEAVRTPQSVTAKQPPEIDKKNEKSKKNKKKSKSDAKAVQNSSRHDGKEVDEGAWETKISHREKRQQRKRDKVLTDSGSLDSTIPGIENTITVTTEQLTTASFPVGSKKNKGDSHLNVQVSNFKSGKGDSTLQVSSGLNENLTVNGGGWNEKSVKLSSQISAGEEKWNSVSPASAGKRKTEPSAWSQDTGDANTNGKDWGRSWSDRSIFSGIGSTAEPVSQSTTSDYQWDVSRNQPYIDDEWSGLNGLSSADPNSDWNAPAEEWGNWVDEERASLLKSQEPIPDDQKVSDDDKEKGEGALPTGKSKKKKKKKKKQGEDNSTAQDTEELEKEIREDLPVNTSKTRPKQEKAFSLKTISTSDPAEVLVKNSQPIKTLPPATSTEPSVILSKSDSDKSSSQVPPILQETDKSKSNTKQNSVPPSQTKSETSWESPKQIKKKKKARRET
UniProt P08590, whole entry, looked up: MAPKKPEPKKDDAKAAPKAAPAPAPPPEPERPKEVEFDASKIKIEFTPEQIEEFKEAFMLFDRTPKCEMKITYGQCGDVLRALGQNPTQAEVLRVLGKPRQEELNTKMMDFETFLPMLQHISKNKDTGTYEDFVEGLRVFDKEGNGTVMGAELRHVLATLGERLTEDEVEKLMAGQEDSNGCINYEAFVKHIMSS
UniProt Q9UKX2, whole entry, looked up: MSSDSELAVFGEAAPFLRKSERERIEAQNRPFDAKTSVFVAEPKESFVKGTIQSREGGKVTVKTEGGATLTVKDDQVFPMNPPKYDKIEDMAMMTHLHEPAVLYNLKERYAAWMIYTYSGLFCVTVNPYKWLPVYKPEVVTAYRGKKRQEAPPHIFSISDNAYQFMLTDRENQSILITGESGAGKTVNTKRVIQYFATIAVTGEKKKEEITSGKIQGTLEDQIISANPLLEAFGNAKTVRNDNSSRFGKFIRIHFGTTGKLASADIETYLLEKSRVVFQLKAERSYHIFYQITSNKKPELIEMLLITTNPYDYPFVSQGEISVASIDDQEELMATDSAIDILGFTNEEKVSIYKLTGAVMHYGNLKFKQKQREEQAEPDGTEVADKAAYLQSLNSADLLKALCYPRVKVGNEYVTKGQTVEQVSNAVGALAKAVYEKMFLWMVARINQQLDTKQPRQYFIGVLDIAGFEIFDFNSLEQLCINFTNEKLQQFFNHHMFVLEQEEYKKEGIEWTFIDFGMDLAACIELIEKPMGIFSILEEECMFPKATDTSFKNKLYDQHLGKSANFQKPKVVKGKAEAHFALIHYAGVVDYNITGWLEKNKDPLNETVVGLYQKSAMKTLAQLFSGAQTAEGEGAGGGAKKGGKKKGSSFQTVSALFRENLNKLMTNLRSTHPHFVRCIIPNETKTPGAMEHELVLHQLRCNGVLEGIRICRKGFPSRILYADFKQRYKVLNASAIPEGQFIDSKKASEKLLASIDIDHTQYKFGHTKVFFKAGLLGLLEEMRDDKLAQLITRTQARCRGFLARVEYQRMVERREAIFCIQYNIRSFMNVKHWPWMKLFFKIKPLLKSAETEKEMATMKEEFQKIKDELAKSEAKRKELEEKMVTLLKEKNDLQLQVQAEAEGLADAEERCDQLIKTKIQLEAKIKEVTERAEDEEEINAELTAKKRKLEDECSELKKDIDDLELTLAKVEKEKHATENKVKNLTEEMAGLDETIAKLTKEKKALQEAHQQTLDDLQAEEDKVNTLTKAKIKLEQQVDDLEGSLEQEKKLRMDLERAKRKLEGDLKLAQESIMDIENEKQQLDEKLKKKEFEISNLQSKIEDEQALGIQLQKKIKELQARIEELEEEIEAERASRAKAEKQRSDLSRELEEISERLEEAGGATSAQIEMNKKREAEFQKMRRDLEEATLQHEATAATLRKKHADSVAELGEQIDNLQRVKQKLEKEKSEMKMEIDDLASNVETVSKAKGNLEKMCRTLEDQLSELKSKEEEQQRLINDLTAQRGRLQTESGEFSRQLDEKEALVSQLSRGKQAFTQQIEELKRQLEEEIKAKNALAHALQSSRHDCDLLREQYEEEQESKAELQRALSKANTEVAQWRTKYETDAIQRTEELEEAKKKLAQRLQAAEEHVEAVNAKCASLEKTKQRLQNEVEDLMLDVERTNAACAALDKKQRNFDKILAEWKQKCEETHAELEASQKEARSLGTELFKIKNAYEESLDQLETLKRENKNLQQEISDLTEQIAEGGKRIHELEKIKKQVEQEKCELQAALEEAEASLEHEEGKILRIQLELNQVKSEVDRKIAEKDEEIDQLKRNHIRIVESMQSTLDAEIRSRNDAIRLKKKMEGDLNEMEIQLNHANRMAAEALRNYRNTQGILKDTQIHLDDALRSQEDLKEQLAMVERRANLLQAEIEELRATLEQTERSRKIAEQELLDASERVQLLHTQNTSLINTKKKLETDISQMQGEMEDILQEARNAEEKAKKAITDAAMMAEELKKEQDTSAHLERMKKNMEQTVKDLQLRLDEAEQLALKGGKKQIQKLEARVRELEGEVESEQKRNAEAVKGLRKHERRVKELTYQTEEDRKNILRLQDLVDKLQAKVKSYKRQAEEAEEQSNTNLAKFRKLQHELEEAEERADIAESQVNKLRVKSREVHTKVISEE
UniProt P84157: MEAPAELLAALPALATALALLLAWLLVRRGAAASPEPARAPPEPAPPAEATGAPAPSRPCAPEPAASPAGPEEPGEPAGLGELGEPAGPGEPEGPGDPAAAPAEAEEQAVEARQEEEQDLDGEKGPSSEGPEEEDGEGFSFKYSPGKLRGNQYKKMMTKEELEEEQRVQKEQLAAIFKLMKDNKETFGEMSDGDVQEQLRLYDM
UniProt O43795: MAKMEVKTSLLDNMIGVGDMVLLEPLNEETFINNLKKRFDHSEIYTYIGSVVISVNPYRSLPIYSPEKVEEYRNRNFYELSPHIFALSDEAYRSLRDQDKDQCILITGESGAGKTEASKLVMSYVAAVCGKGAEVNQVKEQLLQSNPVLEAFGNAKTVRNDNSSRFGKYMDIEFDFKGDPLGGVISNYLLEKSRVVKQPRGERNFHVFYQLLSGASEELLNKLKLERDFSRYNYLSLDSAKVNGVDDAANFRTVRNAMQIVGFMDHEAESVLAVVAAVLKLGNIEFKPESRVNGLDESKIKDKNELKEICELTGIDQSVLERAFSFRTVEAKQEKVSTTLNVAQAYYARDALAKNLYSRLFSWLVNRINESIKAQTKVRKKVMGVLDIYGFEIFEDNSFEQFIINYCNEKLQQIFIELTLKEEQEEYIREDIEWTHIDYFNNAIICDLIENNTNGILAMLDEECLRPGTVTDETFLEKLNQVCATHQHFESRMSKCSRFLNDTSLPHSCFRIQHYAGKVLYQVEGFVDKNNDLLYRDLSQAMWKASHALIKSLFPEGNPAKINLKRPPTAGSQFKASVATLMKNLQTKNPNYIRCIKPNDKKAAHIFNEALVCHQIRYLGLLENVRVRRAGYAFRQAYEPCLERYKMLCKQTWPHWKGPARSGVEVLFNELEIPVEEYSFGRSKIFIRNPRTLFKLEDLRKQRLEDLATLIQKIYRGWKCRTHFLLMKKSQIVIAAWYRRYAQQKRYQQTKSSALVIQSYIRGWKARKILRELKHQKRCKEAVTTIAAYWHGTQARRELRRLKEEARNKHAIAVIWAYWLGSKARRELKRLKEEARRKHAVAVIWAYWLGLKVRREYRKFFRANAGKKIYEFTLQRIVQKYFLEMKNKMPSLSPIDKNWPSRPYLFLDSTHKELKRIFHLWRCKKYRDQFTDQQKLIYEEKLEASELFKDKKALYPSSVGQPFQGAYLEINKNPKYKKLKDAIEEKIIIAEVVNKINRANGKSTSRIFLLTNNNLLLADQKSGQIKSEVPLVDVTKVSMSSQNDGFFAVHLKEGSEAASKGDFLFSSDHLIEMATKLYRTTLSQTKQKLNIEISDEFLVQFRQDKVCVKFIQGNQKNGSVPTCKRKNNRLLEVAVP
UniProt G3V1V0: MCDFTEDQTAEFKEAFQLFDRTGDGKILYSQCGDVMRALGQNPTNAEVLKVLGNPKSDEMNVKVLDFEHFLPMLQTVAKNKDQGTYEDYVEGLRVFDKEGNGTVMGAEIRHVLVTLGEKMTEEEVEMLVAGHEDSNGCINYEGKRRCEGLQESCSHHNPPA

[2] = compound: Cc1cccc(CC(=O)N2CCc3c2ccc(-c2cn(C)c4ncnc(N)c24)c3F)n1
Summary of the method: as §1

[3] = compound: Cc1cn(-c2cc(NC(=O)c3ccc(C)c(Nc4nccc(-c5cccnc5)n4)c3)cc(C(F)(F)F)c2)cn1 [nilotinib]
Summary of the method: as §1

[4] = compound: Cc1nc(Nc2n[nH]c3c2CN(C(=O)N[C@H](CN(C)C)c2ccccc2)C3(C)C)c2sccc2n1
Summary of the method: as §1

[5] = compound: Cc1nc(Nc2ncc(C(=O)Nc3c(C)cccc3Cl)s2)cc(N2CCN(CCO)CC2)n1 [dasatinib]
Summary of the method: as §1

[6] = compound: Cc1ncc(-c2ccnc(Nc3ccc(S(C)(=O)=O)cc3)n2)n1C(C)C
Summary of the method: as §1

[7] = compound: Cn1cc(-c2ccc3c(c2)CCN3C(=O)Cc2cccc(C(F)(F)F)c2)c2c(N)ncnc21
Summary of the method: as §1

[8] = compound: Cn1cc(-c2ccc3nnc(C(F)(F)c4ccc5ncccc5c4)n3n2)cn1
Summary of the method: as §1

[9] = compound: Cn1cncc1[C@@](N)(c1ccc(Cl)cc1)c1ccc2c(c1)c(-c1cccc(Cl)c1)cc(=O)n2C [tipifarnib]
Summary of the method: as §1

[10] = compound: NC(=O)Nc1cc(-c2cccc(F)c2)sc1C(=O)N[C@H]1CCCNC1
Summary of the method: as §1

[11] = compound: NC(=O)c1cnc(N[C@@H]2CCCC[C@@H]2N)nc1Nc1cccc(-n2nccn2)c1
Summary of the method: as §1

[12] = compound: NCC(=O)Nc1ccc(-n2nc(C(F)(F)F)cc2-c2ccc3c(ccc4ccccc43)c2)cc1
Summary of the method: as §1

[13] = compound: Nc1ccccc1NC(=O)c1ccc(CNC(=O)OCc2cccnc2)cc1 [entinostat]
Summary of the method: as §1

[14] = compound: O=C(CCCCCCC(=O)Nc1ccccc1)NO [vorinostat]
Summary of the method: as §1

[15] = compound: O=C1NC(=O)C(c2cnc3ccccn23)=C1c1cn2c3c(cc(F)cc13)CN(C(=O)N1CCCCC1)CC2
Summary of the method: as §1

[16] = compound: FC(F)(F)c1ccc(/C=C/c2nc(COc3ccc(CCCCn4ccnn4)cc3)co2)cc1 [mubritinib]
Summary of the method: as §1

[17] = compound: NC1(c2ccc(-c3nc4ccn5c(=O)[nH]nc5c4cc3-c3ccccc3)cc2)CCC1
Summary of the method: as §1

[18] = compound: O=C(O)c1ccc2c(c1)nc(Nc1cccc(Cl)c1)c1ccncc12 [silmitasertib]
Summary of the method: as §1

[19] = compound: O=C(CCCCCCNC(=O)c1cnc(N(c2ccccc2)c2ccccc2Cl)nc1)NO [citarinostat]
Summary of the method: as §1

[20] = compound: c1cc(OCCN2CCCCC2)cc(-c2n[nH]c3ccc(-c4nnc[nH]4)cc23)c1
Summary of the method: as §1

Measured: log2 fold change

MTFR1L (UniProt Q9H019)
inactive: [1] -0.1 | [2] 0.305 | [3] 0.014 | [4] -0.32 | [5] -0.167 | [6] -0.038 | [7] 0.07 | [8] 0.001 | [9] -0.062 | [10] -0.069 | [11] -0.079 | [12] -0.005 | [13] 0.069 | [14] 0.356 | [15] -0.014

MTHFSD isoform 3 (UniProt Q2M296)
inactive: [1] 0.129 | [2] -0.198 | [5] 0.187 | [7] -0.203 | [8] -0.154 | [9] 0.086 | [16] -0.286 | [10] -0.404 | [11] -0.051 | [17] 0.339 | [12] 0.131 | [13] 0.201 | [14] 0.265 | [18] 0.012

MT-ATP8 (UniProt P03928)
inactive: [1] -0.083 | [2] -0.23 | [3] 0.04 | [4] 0.024 | [6] -0.148 | [16] -0.026 | [10] 0.213 | [11] -0.107 | [17] -0.028 | [13] -0.113 | [14] -0.031 | [19] -0.154 | [18] 0.004 | [15] -0.316 | [20] -0.019

MT-CO2 (UniProt P00403)
inactive: [1] -0.047 | [2] -0.022 | [3] 0.013 | [4] -0.018 | [5] -0.06 | [6] -0.028 | [7] 0.016 | [8] -0.004 | [9] 0.127 | [16] 0.092 | [10] -0.002 | [11] 0.121 | [17] -0.044 | [12] 0.056 | [13] -0.028 | [14] 0.026 | [19] 0.042 | [18] -0.035 | [15] 0.005 | [20] -0.048

MTCH2 (UniProt Q9Y6C9)
inactive: [1] -0.055 | [2] 0.04 | [3] -0.031 | [4] 0.017 | [5] 0.065 | [6] -0.045 | [7] 0.041 | [8] 0.027 | [9] 0.037 | [16] 0.01 | [10] -0.026 | [11] -0.076 | [17] -0.016 | [12] -0.065 | [13] -0.026 | [14] -0.012 | [19] 0.018 | [18] 0.012 | [15] -0.082 | [20] -0.021

2 successive records from above, for reference:
MT-CO2 (UniProt P00403)
inactive: [1] -0.047 | [2] -0.022 | [3] 0.013 | [4] -0.018 | [5] -0.06 | [6] -0.028 | [7] 0.016 | [8] -0.004 | [9] 0.127 | [16] 0.092 | [10] -0.002 | [11] 0.121 | [17] -0.044 | [12] 0.056 | [13] -0.028 | [14] 0.026 | [19] 0.042 | [18] -0.035 | [15] 0.005 | [20] -0.048

MTCH2 (UniProt Q9Y6C9)
inactive: [1] -0.055 | [2] 0.04 | [3] -0.031 | [4] 0.017 | [5] 0.065 | [6] -0.045 | [7] 0.041 | [8] 0.027 | [9] 0.037 | [16] 0.01 | [10] -0.026 | [11] -0.076 | [17] -0.016 | [12] -0.065 | [13] -0.026 | [14] -0.012 | [19] 0.018 | [18] 0.012 | [15] -0.082 | [20] -0.021

Next part:

MT-ND2 (UniProt P03891)
active: [5] -0.459
inactive: [1] 0 | [2] -0.173 | [3] -0.006 | [4] 0.018 | [6] -0.171 | [7] 0.279 | [8] 0.11 | [9] 0.383 | [16] -0.01 | [11] 0.146 | [17] -0.128 | [12] 0.036 | [14] 0.036 | [18] -0.01

MYD88 isoform 6 (UniProt Q99836)
inactive: [1] 0.531 | [2] 0.032 | [3] 0.061 | [4] 0.119 | [6] -0.027 | [9] 0.508 | [16] -0.34 | [10] -0.085 | [11] 0 | [17] 0.492 | [12] -0.083 | [13] 0.097 | [14] -0.001 | [18] 0.194 | [15] 0.005

MTG1 (UniProt Q9BT17)
inactive: [1] -0.039 | [2] -0.047 | [3] -0.03 | [4] 0.039 | [5] -0.067 | [6] -0.007 | [7] -0.125 | [8] 0.034 | [9] 0.042 | [16] 0.04 | [11] 0.113 | [17] -0.067 | [12] 0.16 | [14] 0.072 | [18] -0.195 | [15] 0.095

MTIF3 (UniProt Q9H2K0)
inactive: [1] 0.021 | [2] 0.021 | [3] -0.069 | [4] -0.196 | [5] -0.015 | [6] -0.073 | [7] -0.085 | [10] 0.082 | [11] 0.17 | [12] 0.249 | [13] -0.223 | [14] -0.023 | [15] -0.071

MTDH (UniProt Q86UE4)
inactive: [1] 0.182 | [2] -0.028 | [3] 0.016 | [4] 0.138 | [5] 0.218 | [6] -0.03 | [7] -0.259 | [8] -0.22 | [9] 0.161 | [16] -0.134 | [10] 0.134 | [11] 0.08 | [17] 0.364 | [12] 0.207 | [13] -0.079 | [14] 0 | [19] -0.084 | [18] 0.162 | [15] 0.228 | [20] -0.167

MRPS16 (UniProt Q9Y3D3)
inactive: [1] 0.192 | [2] 0.151 | [3] -0.187 | [4] 0.009 | [6] -0.053 | [7] 0.049 | [8] 0.092 | [9] -0.094 | [16] 0.16 | [10] 0.026 | [11] -0.04 | [17] -0.079 | [12] -0.05 | [13] 0.075 | [14] 0.133 | [19] 0.057 | [18] -0.063 | [15] -0.016 | [20] -0.036

MYL3 (UniProt P08590)
inactive: [1] -0.011 | [2] -0.08 | [3] -0.078 | [4] 0.08 | [5] -0.101 | [6] 0.092 | [7] 0 | [8] 0.018 | [9] 0.045 | [16] -0.016 | [17] 0.102 | [14] 0.016 | [19] -0.132 | [18] 0.008 | [20] -0.101

MRPS14 (UniProt O60783)
inactive: [1] 0.103 | [2] 0.084 | [3] -0.229 | [4] 0.086 | [5] -0.062 | [6] -0.086 | [7] -0.102 | [8] -0.023 | [9] 0.115 | [10] -0.012 | [11] -0.043 | [12] -0.092 | [13] -0.002 | [14] 0.209 | [19] -0.053 | [15] -0.141 | [20] 0.004

MRPS31 (UniProt Q92665)
inactive: [1] 0.066 | [2] 0.042 | [3] -0.041 | [4] 0.093 | [5] -0.012 | [6] 0.065 | [7] 0.078 | [8] 0.027 | [9] -0.002 | [16] 0.138 | [10] -0.001 | [11] 0.03 | [17] -0.05 | [12] 0 | [13] -0.011 | [14] -0.039 | [19] 0.008 | [18] -0.012 | [15] -0.036 | [20] -0.083

MYH2 (UniProt Q9UKX2)
inactive: [1] -0.153 | [5] -0.044 | [16] 0.005 | [17] -0.042 | [19] -1.25 | [18] -0.053 | [20] -1.28

MXRA7 isoform 3 (UniProt P84157)
inactive: [8] -0.078 | [9] 0.011

MYO1B (UniProt O43795)
inactive: [2] -0.161 | [12] -0.192 | [14] 0.063

MYL6 (UniProt G3V1V0)
inactive: [1] -0.143 | [5] -0.016 | [7] -0.046 | [8] 0.011 | [16] 0.139 | [10] 0.138 | [11] -0.004 | [17] 0.306 | [12] -0.038 | [13] 0.052 | [19] -0.018 | [18] 0.087 | [20] -0.06

MRPS21 (UniProt P82921)
inactive: [1] 0.382 | [3] -0.347 | [4] 0.137 | [5] -0.284 | [6] -0.002 | [7] 0.036 | [8] 0.017 | [9] -0.028 | [16] 0.277 | [10] -0.009 | [11] 0.137 | [17] -0.003 | [12] 0.095 | [13] -0.004 | [19] 0.07 | [18] -0.156 | [15] 0.024 | [20] -0.05

MRPS36 (UniProt D6R941)
inactive: [3] -0.046 | [4] 0.237 | [6] 0.1 | [10] -0.332 | [13] 0.095 | [15] -0.174

Reference: the supplement of paper PMC10849652
